Patent US8410247B2, “Water-soluble phosphinothiol reagents” (Wisconsin Alumni Research Foundation, priority 2008, dated 2013)

Tests used:
[1] = Traceless Staudinger ligation in aqueous buffer with azide 15, 13C NMR assay; details: equimolar reactants
[2] = Traceless Staudinger ligation in aqueous buffer with azide 67, quantitative 13C NMR; details: near pH 8.0; equimolar with azide 67

SMILES	ligation yield of amide 16 ([1]; all solutions with pH ≧7.5)	ligation yield of amide 16 ([1]; at high pH, 0.40 M sodium phosphate buffer)	ligation yield of amide 68 [2]
CN(C)CCc1ccc(P(CS)c2ccc(CCN(C)C)cc2)cc1 [phosphinothiol 17, bis(p-dimethylaminoethyl) phosphinomethanethiol]	exceeded 80%	94%	–
CN(C)Cc1cccc(P(CS)c2cccc(CN(C)C)c2)c1 [phosphinothiol 34, HSCH2P(C6H4-m-CH2NMe2)2.2HCl]	–	–	~70%
